Source: PubChem BioAssay AID2551 (National Center for Advancing Translational Sciences (NCATS), 2010)
About 17,000 (5.5%) of roughly 310,000 compounds were called active. Inconclusive results, whose numbers are uncertain, are shown with a selection of clear calls. The call rests on the fitted dose curve; in most records, active means well fitted inhibition curve with a large enough effect; inconclusive means small, poorly fitted or top-dose-only effect, or effect the other way; inactive means no such curve, though single readings can be large or run the other way. Potencies of inconclusive entries are doubtful fits and often do not repeat.

Protein sequences, listed by entry. Tags and fused reporters are not part of them. Lines headed by an entry give the natural chain unless they say otherwise; changes in a name come on top.
UniProt P51450: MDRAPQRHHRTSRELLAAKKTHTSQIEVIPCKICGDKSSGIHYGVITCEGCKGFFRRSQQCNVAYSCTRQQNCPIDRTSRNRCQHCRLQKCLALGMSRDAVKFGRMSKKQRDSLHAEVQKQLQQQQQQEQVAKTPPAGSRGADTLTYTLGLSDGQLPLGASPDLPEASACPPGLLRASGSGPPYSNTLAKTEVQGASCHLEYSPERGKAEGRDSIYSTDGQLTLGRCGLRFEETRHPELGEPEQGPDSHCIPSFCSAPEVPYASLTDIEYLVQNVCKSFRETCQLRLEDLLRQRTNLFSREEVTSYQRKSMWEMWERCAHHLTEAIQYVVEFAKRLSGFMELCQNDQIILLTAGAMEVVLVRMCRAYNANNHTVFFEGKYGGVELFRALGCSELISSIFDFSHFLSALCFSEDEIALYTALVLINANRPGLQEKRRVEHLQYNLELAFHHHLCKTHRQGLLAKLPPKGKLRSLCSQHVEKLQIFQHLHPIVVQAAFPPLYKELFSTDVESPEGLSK

biological target: Nuclear receptor ROR-gamma (Mus musculus) (UniProt P51450); test: qHTS for inhibitors of ROR gamma transcriptional activity; details: Drosophila S2 Gal4-RORgamma UAS-luciferase reporter, 20 h; activity change, negative = inhibition: at 53.6 µM (top of the series); further: nearly all actives have a fitted effect of over 60% in size
How it was run: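 Schneider cells (Drosophila), stable Gal4 DBD–ROR gamma + UAS-luc; 1 hr cmpd preincubation; Cu2+ induction 700 uM final; 20 hr ambient; luminescence.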
On the % scale 0 is the no-effect control and ±100 the full control effect; potency means the concentration at half of the fitted maximal effect.

Row | Structure (SMILES) | Potency | activity change, negative = inhibition
1 | O=C(NCCc1c[nH]c2ccccc12)C(=O)NCC1OCCN1S(=O)(=O)c1ccc(F)cc1 (stereo not given) | inconclusive: 12.6 µM [activator, partial curve] | –
2 | CC1CCCN(C(=O)c2ccc3c(c2)C(=O)N(CCC2=CCCCC2)C3=O)C1 (stereo not given) | inconclusive: 35.5 µM [activator, single point] | –
3 | C=CCNC(=O)COC(=O)CNC(=O)c1cc(Cl)cc([N+](=O)[O-])c1 | inconclusive: 11.2 µM [inhibitor, single point] | –
4 | CCOC(=O)c1c(NC(=O)/C=C/C(=O)O)sc(C)c1-c1ccc(F)cc1 | inconclusive: 15.8 µM [inhibitor, single point] | –
5 | Cc1cc(C(=O)Nc2nc(C)c(C(=O)N(C)C)s2)ccc1[N+](=O)[O-] | inconclusive: 7.94 µM [inhibitor, partial curve] | –
6 | O=c1cc(CO)occ1OCc1ccccc1 | inconclusive: 5.01 µM [activator, partial curve, poor fit] | –
7 | CCOC(=O)C(OC(=O)c1sc(=S)n(C)c1C)C(C)=O (stereo not given) | inconclusive: 0.501 µM [inhibitor, single point] | –
8 | O=C1C=C(N(CCO)Cc2ccccc2)c2ccccc2C1=O | active: 7.08 µM | –
9 | CC(=O)N1c2ccc(S(=O)(=O)N3CCC(C(=O)NCc4ccc(Cl)cc4)CC3)cc2CC1C (stereo not given) | inconclusive: 12.6 µM [activator, single point] | –
10 | CCCCC(=O)Nc1ncc([N+](=O)[O-])s1 | inconclusive: 12.6 µM [activator, single point] | –
11 | CC(=O)Nc1ccc(C(=O)OCCC(C)C)cc1 | inconclusive: 6.31 µM [activator, single point] | –
12 | O=[N+]([O-])c1ccc(COc2ccc(-c3[nH]ncc3-c3ccccc3)c(O)c2)cc1 | active: 7.08 µM | –
13 | Cn1c(=O)c(C(=O)COC(=O)c2cc(-c3ccco3)nc3ccccc23)c(N)n(CC2CC2)c1=O | inconclusive: 0.794 µM [activator, single point] | –
14 | O=C(CSc1cccc[n+]1[O-])C12CC3CC(CC(C3)C1)C2 | – | inactive: -82.2%
15 | O=C(Nc1ccc(Cl)c(Cl)c1)Nc1ccc(Br)cc1F | inconclusive: 25.1 µM [inhibitor, single point] | –
16 | Cn1cnnc1SCC(=O)Nc1ncc(C(F)(F)F)cc1Cl | inconclusive: 28.2 µM [inhibitor, single point] | –
17 | CN(CCC#N)c1ccc(/C=C(\C#N)c2ccccn2)cc1 | active: 10 µM | –
18 | COc1ccc(C(=O)NC(=S)NNC(=O)CNC(=O)C2CCCCC2)cc1 | – | inactive: -41.6%
19 | CCOc1ccc(N(C)S(=O)(=O)c2ccc3[nH]cc(C(=O)NCCCOC)c(=O)c3c2)cc1 | inconclusive: 35.5 µM [activator, single point] | –
20 | COc1ccccc1CNS(=O)(=O)c1c(C)nc2sccn2c1=O | – | inactive: -16.4%
21 | CSc1nnc(-c2cccc(NC(=S)NN)c2)o1 | inconclusive: 22.4 µM [inhibitor, single point] | –
22 | Fc1ccc2c(c1)/C(=N/Nc1ccccn1)CCS2 | inconclusive: 17.8 µM [inhibitor, single point] | –
23 | O=C(CSc1nc2ccccc2c(=O)n1CCC(=O)N1CCCCC1)NCc1ccccc1 | inconclusive: 12.6 µM [activator, single point] | –

Complete entries, quoted from the list. Order of values: Potency | activity change, negative = inhibition
Cn1cnnc1SCC(=O)Nc1ncc(C(F)(F)F)cc1Cl in the list: inconclusive: 28.2 µM [inhibitor, single point] | –
Cn1c(=O)c(C(=O)COC(=O)c2cc(-c3ccco3)nc3ccccc23)c(N)n(CC2CC2)c1=O in the list: inconclusive: 0.794 µM [activator, single point] | –
COc1ccccc1CNS(=O)(=O)c1c(C)nc2sccn2c1=O in the list: – | inactive: -16.4%

Additional structures follow:

Row | Structure (SMILES) | Potency | activity change, negative = inhibition
24 | C=CCn1c(SCC(=O)NC(N)=O)nnc1-c1cc2c(s1)CCC(CC)C2 (stereo not given) | inconclusive: 0.708 µM [activator, single point] | –
25 | Cc1cccc(C)c1NC(=O)C(Cl)C(=O)c1ccccc1 (stereo not given) | inconclusive: 25.1 µM [inhibitor, single point] | –
26 | CCOC(=O)c1c(NC(=O)CSc2nc3ccccc3o2)sc(C(C)=O)c1C | active: 12.6 µM | –
27 | COc1ccc(OCCCn2ccnc2)cc1 | inconclusive: 20 µM [inhibitor, single point] | –
28 | Cc1nc(Nc2cc(F)ccc2C)c2nnn(Cc3ccccc3)c2n1 | inconclusive: 12.6 µM [activator, partial curve, poor fit] | –
29 | O=C(CN1CCCc2ccccc21)N/N=C/c1c(O)ccc2ccccc12 | active: 1.26 µM | –
30 | O=C(Cc1ccccc1)N/N=C\c1ccc(Br)o1 | inconclusive: 22.4 µM [inhibitor, single point] | –
31 | CCOC(=O)C1CCN(C(=S)NC(=O)c2cccs2)CC1 | active: 5.62 µM | –
32 | COc1cccc(NC(=O)C/C(C)=N/NC(=O)c2ccccc2Cl)c1 | inconclusive: 22.4 µM [inhibitor, single point] | –
33 | O=C(CSCc1ccc(F)cc1)N1CCOCC1 | inconclusive: 4.47 µM [activator, full curve] | –
34 | CCOc1ccc(OCCn2c(=S)[nH]c3c(N)ncnc32)cc1 | active: 2.51 µM | –
35 | O=C(Nc1cc(Cl)cc(Cl)c1)c1cccc(OC(F)F)c1 | inconclusive: 22.4 µM [activator, single point] | –
36 | O=C(N/N=C/c1cn(-c2ccccc2)nc1-c1ccc(F)cc1)c1ccc2c(c1)OCO2 | active: 2.24 µM | –
37 | CC1(C)C(O)=C(c2nc3ccccc3[nH]2)C(=N)N1c1ccccc1 | active: 1.78 µM | –
38 | COc1ccc(NC(=O)CSc2ccccc2)cc1S(=O)(=O)N1CCCCC1 | inconclusive: 12.6 µM [activator, single point] | –
39 | O=C(O)c1ccccc1-c1ccccc1C(=O)Nc1ccc2c(c1)[nH]c(=O)c1ccccc12 | – | inactive: -4.11%
40 | Cc1cc(C)nc(SCCn2c(N3CCC(C)CC3)nc3c2c(=O)n(C)c(=O)n3C)n1 | – | inactive: 12.9%
41 | Cc1cc(NC(=O)C2CCN(S(=O)(=O)Cc3ccccc3)CC2)ccc1-n1cnnn1 | inconclusive: 3.16 µM [activator, partial curve, poor fit] | –
42 | COc1ccc(CC(=O)NCc2ccc(-n3cccc3)cc2)cc1OC | inconclusive: 25.1 µM [activator, single point] | –
43 | CC(C)(C)NC(=O)/C(=C\c1ccco1)NC(=O)c1ccco1 | – | inactive: -2.39%
44 | CCOc1ccc(N=C2NC(=O)/C(=C/C(=O)OC)S2)cc1 | inconclusive: 22.4 µM [inhibitor, single point] | –
45 | CCC(=O)Nc1ccc2nc(C3CC3)n(Cc3ccccc3)c(=O)c2c1 | inconclusive: 0.891 µM [activator, full curve] | –
